Source: patent US6570002 (Johns Hopkins, dated 2003)

How the values were obtained:
[1] = molecular target: KSBcl-2 (Kaposi sarcoma-associated herpes virus Bcl-2 homologue) (Kaposi sarcoma-associated herpes virus); experiment: co-immunoprecipitation from COS-1 cell lysates (FIG. 7B)
[2] = molecular target: KSBcl-2 (Kaposi sarcoma-associated herpes virus Bcl-2 homologue) (Kaposi sarcoma-associated herpes virus); experiment: yeast two-hybrid / co-immunoprecipitation from COS-1 cell lysates (FIGS. 6, 7B)
[3] = molecular target: KSBcl-2 (Kaposi sarcoma-associated herpes virus Bcl-2 homologue) (Kaposi sarcoma-associated herpes virus); experiment: yeast two-hybrid and co-immunoprecipitation on COS-1 cell lysates (FIGS. 6, 7, 8)

Measured: binding

B1: Aven (protein)
chain: MQAERGARGGRGRRPGRGRPGGDRHSERPGAAAAVARGGGGGGGGDGGGRRGRGRGRGFRGARGGRGGGGAPRGSRREPGGWGAGASAPVEDDSDAETYGEENDEQGNYSKRKIVSNWDRYQDIEKEVNNESGESQRGTDFSVLLSSAGDSFSQFRFAEEKEWDSEASCPKQNSAFYVDSELLVRALQELPLCLRLNVAAELVQGTVPLEVPQVKPKRTDDGKGLGMQLKGPLGPGGRGPIFELKSVAAGCPVLLGKDNPSPGPSRDSQKPTSPLQSAGDHLEEELDLLLNLDAPIKEGDNILPDQTSQDLKSKEDGEVVQEEEVCAKPSVTEEKNMEPEQPSTSKNVTEEELEDWLDSMIS
binds: [1] | [2] | [3]

Results are given in words; binding and its absence hold for the method and conditions named. In cells and extracts the contact can be indirect. Binding can be weak; no strength is given.
